Where “and” joins values, the source holds several entries; their conditions need not be identical. Identical values can stand only once. Among all 2,000 compounds or so, about 45 (2%) were called active.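 How the source made its calls: active means inhibition above the screen-wide mean inhibition plus 3 SD (cut at about 44% in these data); inactive means the rest.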 The list shows a part of the results. Where a SMILES comes first, the peptide text is derived from it. The star is where a group is joined. Boc = CC(C)(C)OC(=O)*; OBn = c1ccc(CO*)cc1
What follows are molecules tested against Perilipin-1 (Homo sapiens) + 1-acylglycerol-3-phosphate O-acyltransferase ABHD5 (Homo sapiens) (UniProt O60240+Q8WTS1) (assay: blockers of ABHD5 binding to perilipin-1 – cell lysate, split luciferase complementation, luminescence, NIH validation set, pilot screen (AID 493027;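 further: 0% = DMSO wells with the 100% control not disclosed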)). Conditions: split G. princeps luciferase complementation, 4 h; at 7.9 µM, stronger effect = higher value.

Sequences of proteins named here, by UniProt entry; tags and fusion partners are left off. A change or cut given only in a name is not applied to a line headed by its entry.
UniProt O60240: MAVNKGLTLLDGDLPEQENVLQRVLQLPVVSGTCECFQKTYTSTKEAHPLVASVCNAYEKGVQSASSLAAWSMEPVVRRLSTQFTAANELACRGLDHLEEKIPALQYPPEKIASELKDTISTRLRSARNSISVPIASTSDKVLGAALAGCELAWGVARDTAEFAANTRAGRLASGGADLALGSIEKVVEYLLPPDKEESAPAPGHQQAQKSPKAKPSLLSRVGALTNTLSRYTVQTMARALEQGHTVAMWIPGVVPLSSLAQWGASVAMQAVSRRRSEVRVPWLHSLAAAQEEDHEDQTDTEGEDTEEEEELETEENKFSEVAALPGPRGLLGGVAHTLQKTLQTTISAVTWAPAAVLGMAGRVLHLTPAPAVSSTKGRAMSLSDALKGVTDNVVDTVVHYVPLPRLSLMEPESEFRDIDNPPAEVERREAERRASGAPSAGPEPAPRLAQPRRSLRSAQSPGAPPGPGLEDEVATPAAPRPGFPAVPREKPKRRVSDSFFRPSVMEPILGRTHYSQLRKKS
UniProt Q8WTS1: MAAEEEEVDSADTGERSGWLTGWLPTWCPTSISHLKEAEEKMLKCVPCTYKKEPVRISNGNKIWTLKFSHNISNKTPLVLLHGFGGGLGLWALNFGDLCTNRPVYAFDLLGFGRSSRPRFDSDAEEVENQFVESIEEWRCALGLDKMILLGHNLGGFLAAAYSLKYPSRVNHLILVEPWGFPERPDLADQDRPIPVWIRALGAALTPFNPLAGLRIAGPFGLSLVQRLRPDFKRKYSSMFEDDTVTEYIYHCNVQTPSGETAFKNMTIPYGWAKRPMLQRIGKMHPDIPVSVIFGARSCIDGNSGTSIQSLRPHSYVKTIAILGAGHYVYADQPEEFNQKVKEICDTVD

inhibition, inactive:
O=C(NC(CO)Cc1ccc([N+](=O)[O-])cc1)C(Cl)Cl (centres undefined) 3.77%, Cc1ccc2occ(C(=O)c3ccco3)c(=O)c2c1 -4.19%, COc1ccc(C(=O)/C=C/c2ccc(OC(=O)c3cc(OC)c(OC)c(OC)c3)cc2)cc1 26.9%, CC(=O)NC(Cc1ccccc1)C(=O)OCC(=O)c1ccccc1 (centres undefined) -8.49%, COc1cccc(C2CC(=O)C3=C(C2)Nc2ccccc2N(C(=O)CCC(=O)O)C3c2ccc(F)cc2)c1 (centres undefined) -2.89%, COc1ccc2c(c1OC)C(=O)NC(C)=C(C(=O)OC(C)(C)C)C2O (centres undefined) 8.07%, O=C1NC2(Nc3ccccc31)C(=O)Nc1ccc(Br)cc12 (centres undefined) 0.88%, COc1ccc(CNC(=O)c2c(O)c3cccc4c3n(c2=O)CCC4)cc1 5.27%, Cc1nc(C(=O)Nc2ccccc2Cl)cc2c1[nH]c1ccccc12 -0.62%, CCCCC[C@H](O)/C=C/[C@@H]1[C@@H](C/C=C\CCCC(=O)O)[C@@H](O)C[C@H]1O -10.3%, CN(CCO)CC(O)Cn1cnc2c1c(=O)n(C)c(=O)n2C (centres undefined) (tested in a mixture with another compound) -12.9%, CC(C)(C)N(Cc1ccccc1)C(=O)c1ccc(Br)o1 -5.96%, CC(COc1ccccc1)N(CCCl)Cc1ccccc1 (centres undefined) -6.13%, COc1ccc(CN(CCN(C)C)c2ccccn2)cc1 -7.19%, CCOC(=O)C(Cc1cc(C(C)=O)ccc1OC(C)C)C(=O)OCC 5.74%, CCCNC(C)C(=O)Nc1ccccc1C (centres undefined) -5.83%, NC(=O)N1c2ccccc2C=Cc2ccccc21 -5.36%, COc1cc(C2NCCc3c2[nH]c2ccccc32)ccc1OC(C)C (centres undefined) -0.02%, COc1ccc2oc(-c3ccco3)cc(=O)c2c1 1.51%, CCOc1cc2oc(=O)c3c(c2cc1Cl)CCC3 -7%, CCNC(=O)C12CCC(C)(C(=O)O1)C2(C)C (centres undefined) -2.06%, COc1cc2c(cc1OC)C(c1cc3ccccc3oc1=O)=NC(C)(C)C2 7.43%, CN(C)CCN(Cc1cccs1)c1ccccn1 -14.6%, NC(=O)[C@@H]1[C@@H]2C(=O)N(c3ccc(F)cc3)C(=O)[C@@H]2[C@H]2C=Cc3ccccc3N21 22.7%, COc1ccc2[nH]c3c(c2c1)CCNC3C1CC=C(C)CC1 (centres undefined) -5.28%, CCOC(=O)C1(CCCc2ccccc2)CCN(C2CCN(C(C)=O)CC2)CC1 3.04%, Cc1cc(C(=O)Nc2ccccc2C(=O)N2CCCCC2)ccc1[N+](=O)[O-] -3.48%, CN(Cc1ccccc1)CC(O)COc1ccc(CNCc2cccnc2)cc1 (centres undefined) -9.52%, COc1ccc(N2C(=O)C3CCCN3C2=O)cc1 (centres undefined) -1.6%, COc1cc(=O)n(C)c2ccccc12 -0.74%, O=Cc1ccccc1Oc1ccccc1 -8.29%, COc1cc(-c2cccs2)cc(=O)c2c(C)oc(C)c12 32%, CCN(CC)c1ccc([C@H]2[C@@H]3CCCC[C@]3(O)CCN2CC(=O)NCc2ccco2)cc1 -6.03%, COC(=O)c1sccc1NC(=O)Nc1ccccc1F 1.81%, O=C(O)COc1ccc2occ(C(=O)c3ccccc3)c2c1 -1.86%, CN(C)c1ccc(Nc2c3c4c(cccc4n(C)c2=O)C(=O)c2ccccc2-3)cc1 41.7%, CC(C)OC(=O)c1ccc(NC(=O)c2cncc(Br)c2)cc1 -4.19%, O=C(c1ccc(-c2ccccc2)c(F)c1)C1CCCN(C(=O)c2cncs2)C1 (centres undefined) 14.8%, COc1ccc(C(=O)COc2ccc(F)cc2)c(O)c1 -7.26%, COc1ccc2c(c1OC)C(=O)N1C2SC[C@H]1C(=O)NC1CC(C)(C)NC(C)(C)C1 (some centres undefined) -1.05%, O=C(NC1CCCCC1)c1cc2nc(-c3ccco3)cc(C(F)(F)F)n2n1 -3.55%, Cc1c(OCC(F)(F)F)ccnc1CS(=O)c1nc2ccccc2[nH]1 (centres undefined) -7.91%, O=C(/C=C/c1ccc(F)cc1)NC(=S)N1CCCCC1c1cccnc1 (centres undefined) -16.9%, CNC[C@H](O)c1cccc(O)c1 3.45%, COc1ccc2[nH]c(CN3CCN(CC(C)C)C(CCO)C3)c(C)c2c1 (centres undefined) -9.85%, Cn1c2ccccc2c2cc(/C=C(\NC(=O)c3ccccc3)C(=O)O)ccc21 0.09%, COc1ccc(CCNC(=O)C(=O)Nc2ccc3c(c2)OCO3)cc1OC -0.39%, CCN(CC)CCNC(=O)c1ccc(NC(C)=O)cc1 -3.41% and -1.11%, CC[C@H]1CN2CCc3cc(OC)c(OC)cc3[C@@H]2C[C@@H]1C[C@H]1NCCc2cc(OC)c(OC)cc21 1.15%, CCOc1ccc2oc(-c3ccccc3)c(C(=O)O)c2c1 -9.42%, COc1cc(OC)c2c(C)c(Cl)c(=O)oc2c1 -3.22%, COc1ccc(NC(=O)CC(c2ccccc2)c2ccco2)cc1 (centres undefined) 13.3%, COc1ccc(Br)cc1C(=O)Nc1ccc(C(=O)O)cc1 -3.32%, COc1cc([C@@H]2c3cc4c(cc3[C@H](O)[C@H]3COC(=O)[C@H]23)OCO4)cc(OC)c1OC -5.52%, CC(C)CC(NC(=O)C(NC(=O)OC(C)(C)C)C(C)C)C(=O)NC(CCC(=O)OCc1ccccc1)C(N)=O (stereo not drawn) (Boc-Val-Leu-Glu(OBn)-NH2; configuration not given here) -10.2%, COc1ccc(C(=O)Nc2ccccc2C(=O)NCCCn2ccnc2)cc1 -9.4%, O=C(CC1SC(=O)NC1=O)Nc1ccc(Cl)cc1 (centres undefined) -20%, COc1ccc(-c2csc(-c3cccnc3)n2)cc1C -2.4%, COc1ccc(C2(CCN=Cc3ccc(N(C)C)cc3)CCOC(C)(C)C2)cc1 (centres undefined) -7.53%

— PubChem BioAssay AID493027 (The Scripps Research Institute Molecular Screening Center, 2011)
